We go through one compound from the supplement of paper PMC12067093, “Discovery and optimisation of a covalent ligand for TRIM25 and its application to targeted protein ubiquitination” (Chemical Science, 2025).

The chains behind the UniProt entries cited, without tags or fusion partners. Where a name states a change or a piece, a line headed by the entry shows the natural chain unless it says otherwise.
UniProt Q9H2Y7: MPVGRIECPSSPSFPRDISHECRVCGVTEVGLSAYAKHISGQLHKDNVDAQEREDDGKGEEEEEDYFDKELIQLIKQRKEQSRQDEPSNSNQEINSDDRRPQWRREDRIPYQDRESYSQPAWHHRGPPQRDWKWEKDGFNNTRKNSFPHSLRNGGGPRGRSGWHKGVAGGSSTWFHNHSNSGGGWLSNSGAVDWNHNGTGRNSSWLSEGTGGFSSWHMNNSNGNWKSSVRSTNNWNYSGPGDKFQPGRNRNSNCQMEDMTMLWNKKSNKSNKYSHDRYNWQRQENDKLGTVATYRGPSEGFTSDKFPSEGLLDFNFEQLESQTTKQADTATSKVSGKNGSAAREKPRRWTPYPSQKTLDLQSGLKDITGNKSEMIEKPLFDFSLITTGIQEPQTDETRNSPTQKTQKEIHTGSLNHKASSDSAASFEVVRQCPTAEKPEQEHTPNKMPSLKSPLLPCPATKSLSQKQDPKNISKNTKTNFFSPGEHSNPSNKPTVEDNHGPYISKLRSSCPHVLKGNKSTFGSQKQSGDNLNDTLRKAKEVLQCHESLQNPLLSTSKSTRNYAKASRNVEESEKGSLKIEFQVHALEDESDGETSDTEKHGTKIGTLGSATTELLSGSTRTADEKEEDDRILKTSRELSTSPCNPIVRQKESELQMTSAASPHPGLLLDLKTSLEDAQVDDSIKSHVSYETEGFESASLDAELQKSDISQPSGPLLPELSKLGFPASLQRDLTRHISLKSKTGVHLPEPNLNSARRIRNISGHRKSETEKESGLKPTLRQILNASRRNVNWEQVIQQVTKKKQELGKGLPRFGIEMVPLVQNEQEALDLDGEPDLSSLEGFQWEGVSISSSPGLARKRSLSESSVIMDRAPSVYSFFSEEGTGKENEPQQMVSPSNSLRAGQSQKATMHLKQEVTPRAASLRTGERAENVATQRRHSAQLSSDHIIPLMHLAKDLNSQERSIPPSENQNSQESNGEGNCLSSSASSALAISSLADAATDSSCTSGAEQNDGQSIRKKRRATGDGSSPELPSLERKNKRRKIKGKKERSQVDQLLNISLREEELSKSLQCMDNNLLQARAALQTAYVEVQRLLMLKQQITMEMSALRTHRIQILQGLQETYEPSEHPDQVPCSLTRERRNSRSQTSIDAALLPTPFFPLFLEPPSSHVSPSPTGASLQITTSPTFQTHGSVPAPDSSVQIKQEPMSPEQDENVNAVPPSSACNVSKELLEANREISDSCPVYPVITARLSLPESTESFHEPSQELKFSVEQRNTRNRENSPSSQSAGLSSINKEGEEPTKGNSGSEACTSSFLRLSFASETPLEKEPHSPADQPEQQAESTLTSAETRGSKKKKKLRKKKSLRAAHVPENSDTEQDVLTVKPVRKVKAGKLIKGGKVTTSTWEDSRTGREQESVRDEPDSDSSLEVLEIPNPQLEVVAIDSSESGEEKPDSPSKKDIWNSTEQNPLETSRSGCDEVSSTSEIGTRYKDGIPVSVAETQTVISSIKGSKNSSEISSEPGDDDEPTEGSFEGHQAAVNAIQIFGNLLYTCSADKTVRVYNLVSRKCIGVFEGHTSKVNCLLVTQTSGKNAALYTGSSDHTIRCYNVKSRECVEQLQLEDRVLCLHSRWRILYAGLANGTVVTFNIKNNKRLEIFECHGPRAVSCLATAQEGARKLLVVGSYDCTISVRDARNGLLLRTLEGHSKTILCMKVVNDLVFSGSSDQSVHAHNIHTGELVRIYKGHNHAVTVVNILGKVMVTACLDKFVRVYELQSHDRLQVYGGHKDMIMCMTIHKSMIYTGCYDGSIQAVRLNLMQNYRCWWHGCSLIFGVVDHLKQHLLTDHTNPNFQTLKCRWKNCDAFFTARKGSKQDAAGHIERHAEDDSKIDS

Some of the results follow.

The target in the assay is ZNF106_Q9H2Y7-2_7_CILCHIVYSSK (UniProt Q9H2Y7). Nature of the assay: probe-labelled cysteine peptide fold change vs DMSO (competition) (log2 fold change); higher = less target engagement (more negative = stronger competition). The settings on record: THP-1, incubation time: 4 h.
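Also: competitive profiling in live THP-1 cells: cysteine peptides tagged with an iodoacetamide desthiobiotin (IA-DTB) probe, intensity after compound treatment relative to DMSO-treated cells.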

`Cc1cc(C(=O)N2CCCN(C(=O)CCl)CC2)ccc1-c1ccccc1` [compound 10]: the “probe-labelled cysteine peptide fold change” value (10 µM) came out at 0.024 and the “probe-labelled cysteine peptide fold change” value (50 µM) was -0.0149.
